Measurements published in paper PMC519002.
No constants are given. Whether binding was seen depends on the method and setting. In cells and extracts the contact can be indirect. A result given as binding can be weak or reduced; the word gives no strength. Where a sequence is shown, tags or fusion partners need not be part of it.

Amino acid sequences for entries named in this document (tags omitted). A change or cut given only in a name is not applied to a line headed by its entry.
UniProt P40075: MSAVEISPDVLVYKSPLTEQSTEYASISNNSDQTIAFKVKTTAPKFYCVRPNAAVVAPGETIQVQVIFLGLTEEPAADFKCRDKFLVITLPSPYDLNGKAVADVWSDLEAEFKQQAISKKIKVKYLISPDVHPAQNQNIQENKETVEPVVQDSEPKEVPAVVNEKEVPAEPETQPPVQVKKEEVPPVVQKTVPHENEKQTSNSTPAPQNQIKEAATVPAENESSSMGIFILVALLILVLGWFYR

Biological target: T1, myc-tagged Opi1 (S. cerevisiae (endogenous locus, strains derived from CRY1)) (UniProt P21957)
T1 sequence: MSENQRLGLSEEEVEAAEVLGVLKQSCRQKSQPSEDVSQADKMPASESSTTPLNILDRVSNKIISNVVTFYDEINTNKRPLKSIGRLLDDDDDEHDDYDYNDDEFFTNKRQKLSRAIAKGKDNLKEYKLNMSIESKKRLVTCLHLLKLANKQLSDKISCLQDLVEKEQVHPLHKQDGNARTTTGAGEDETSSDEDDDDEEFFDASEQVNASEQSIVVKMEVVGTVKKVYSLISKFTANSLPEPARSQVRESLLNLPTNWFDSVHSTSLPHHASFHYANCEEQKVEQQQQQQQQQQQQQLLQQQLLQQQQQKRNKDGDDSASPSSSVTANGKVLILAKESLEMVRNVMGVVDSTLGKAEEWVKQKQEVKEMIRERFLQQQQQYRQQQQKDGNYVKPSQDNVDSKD
Assay: co-IP; microsomal fraction solubilized with 3% Triton X-100 in IP buffer; anti-myc agarose 4 h at 4 °C, five washes; total, supernatant and bound fractions blotted with anti-myc or anti-HA; strain with Scs2-HA alone as control

binding: binds
Substance: hemagglutinin (HA)-tagged Scs2 (from UniProt P40075)
